The record followed here is article PMC3355116.

Chains of the proteins cited; added tags and fusions are not shown.
UniProt P41212: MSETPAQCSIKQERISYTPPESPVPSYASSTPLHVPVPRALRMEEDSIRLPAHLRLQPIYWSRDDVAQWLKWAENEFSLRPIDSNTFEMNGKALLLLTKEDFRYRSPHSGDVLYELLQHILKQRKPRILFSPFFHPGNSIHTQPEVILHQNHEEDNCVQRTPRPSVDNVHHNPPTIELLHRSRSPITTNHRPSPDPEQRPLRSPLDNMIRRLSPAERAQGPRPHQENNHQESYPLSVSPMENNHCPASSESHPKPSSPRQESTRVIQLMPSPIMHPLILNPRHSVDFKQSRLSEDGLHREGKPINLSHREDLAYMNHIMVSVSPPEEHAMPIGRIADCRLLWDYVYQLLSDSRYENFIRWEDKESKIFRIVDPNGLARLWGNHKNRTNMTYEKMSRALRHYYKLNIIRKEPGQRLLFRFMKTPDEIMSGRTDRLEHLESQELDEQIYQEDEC

Results are given in words; binding and its absence hold for the method and conditions named. Binding seen in cells or lysates may run through a third protein. Some results given as binding are weak or reduced against the parent protein; the word gives no strength. Sequences can lack the tags named with a protein.

This assay concerns the target T1, myc-TEL2SAM (human) (UniProt Q9Y603).
T1 sequence: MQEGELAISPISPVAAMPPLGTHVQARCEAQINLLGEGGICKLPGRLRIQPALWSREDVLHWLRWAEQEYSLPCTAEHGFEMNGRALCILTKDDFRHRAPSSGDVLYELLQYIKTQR
The assay is described as follows: co-IP; cotransfected HeLa cells lysed by sonication (50 mM Tris pH 7.5, 100 mM NaCl, 1 mM EDTA, 1% Triton-X); Myc agarose beads overnight at 4°C; washes with 0.25% Triton-X; western blot. In general terms: Immunoblotting shows a protein as a band on a membrane.

HA-TEL1 (from UniProt P41212 1-452): the binding result was “binds”.
